Results taken from patent publication US7494976B2, “Caveolin peptides and their use as therapeutics” (Yale University, priority 2000, dated 2009).
Not every detail of the peptide structures is certain; ends, links or a residue may be inferred. Peptide text beside a SMILES is read from it.

Tested on: isolated mouse aorta
Test: Ach-induced relaxation of isolated mouse aortic rings (organ bath)
Conditions: biotinylated peptides, 100 mM of each, twenty hours
Procedure: For isolated mouse aortic rings preparations, male C57 black mice (5-7 weeks of age) were anesthetized with methoxyflurane and sacrificed by exsanguination. The thoracic aorta was dissected and cut into cylindrical segments of three millimeters in length. Using a sterile 48-well tissue culture plate, each ring was incubated in a total volume of one ml with either peptides or vehicle (DMSO) diluted in DMEM supplemented with penicillin (100 units/ml), streptomycin (100 μg/ml) and L-glutamine (1 mM). The plate was incubated with 5% CO2. Following incubation with the peptides (one, six, twelve or twenty hours), rings were washed in oxygenated (95% O2-5% CO2) Krebs-Henseleit bicarbonate buffer solution (KHS) of the following composition (NaCl—118.3 mmol/L, KCl—4.7 mmol/L, CaCl2—2.5 mmol/L, MgSO4—1.2 mmol/L, KH2PO4—1.2 mmol/L, NaHCO3—25 mmol/L, glucose—5.6 mmol/L at 37° C. with ibuprofen (10 μM). The rings were suspended by two tungsten wires ([…] thickness) inserted into the lumen and mounted in a vessel myograph system (five ml chamber, Kent Scientific). The mouse aortas were submitted to a resting tension of 1.5 grams and isometric tension was recorded using a force transducer coupled to a MacLab data acquisition system. Following a sixty minute equilibration period, with frequent washes, the rings were precontracted with phenylephrine (PE) (10 μM; sub maximal concentration) and concentrations of Ach (1 nM-10 μM), sodium nitroprusside (10 μM) or Nitro-L-Arginine Methyl Ester (L-NAME, 100 mM) were injected at the plateau of the PE contraction. In some experiments concentration-response curves to the contractile effects of PE were monitored.

Row | Structure (SMILES) | effect on Ach induced relaxation, biotinylated peptides
1 | CC[C@H](C)[C@H](NC(=O)CNC(=O)[C@H](Cc1c[nH]c2ccccc12)NC(=O)[C@H](CCCCN)NC(=O)[C@H](CCCCN)NC(=O)[C@H](Cc1c[nH]c2ccccc12)NC(=O)[C@H](CCCCN)NC(=O)[C@H](CCSC)NC(=O)[C@H](CCCNC(=N)N)NC(=O)[C@H](CCCNC(=N)N)NC(=O)[C@H](CC(N)=O)NC(=O)[C@H](CCC(N)=O)NC(=O)[C@H](Cc1ccccc1)NC(=O)[C@H](Cc1c[nH]c2ccccc12)NC(=O)[C@@H](NC(=O)[C@H](CCCCN)NC(=O)[C@@H](NC(=O)[C@H](CCC(N)=O)NC(=O)[C@H](CCCNC(=N)N)NC(=O)CCCCCNC(=O)CCCC[C@@H]1SC[C@@H]2NC(=O)N[C@@H]21)[C@@H](C)CC)[C@@H](C)CC)C(=O)N[C@@H](CC(=O)O)C(=O)N[C@@H](CCCCN)C(=O)N[C@@H](C)C(=O)N[C@@H](Cc1ccccc1)C(=O)N[C@@H](Cc1ccccc1)C(=O)N[C@H](C(=O)N[C@H](C(=O)N[C@@H](CO)C(=O)N[C@H](C(=O)N[C@H](C(=O)N[C@H](C(=O)N[C@@H](Cc1ccc(O)cc1)C(=O)N[C@@H](CCCCN)C(=O)N[C@@H](Cc1c[nH]c2ccccc12)C(=O)N[C@@H](Cc1ccccc1)C(=O)N[C@@H](CCCNC(=N)N)C(=O)N[C@@H](Cc1ccc(O)cc1)C(=O)O)[C@@H](C)O)C(C)C)[C@@H](C)O)[C@@H](C)O)[C@@H](C)O [Biot-AP-Cav-X, reference compound] (HELM PEPTIDE1{[O=C1N[C@H]2[C@H](CS[C@H]2CCCCC(=O)[*:2])N1].[O=C(CCCCCN[*:1])[*:2]].R.Q.I.K.I.W.F.Q.N.R.R.M.K.W.K.K.W.G.I.D.K.A.F.F.T.T.S.T.V.T.Y.K.W.F.R.Y}$$$$V2.0; N-terminus and C-terminus assumed) | but not Biot-AP-Cav-X, inhibited
2 | CC[C@H](C)[C@H](NC(=O)CNC(=O)[C@H](CC(=O)O)NC(=O)[C@H](CCCCN)NC(=O)[C@H](CCCCN)NC(=O)[C@H](Cc1c[nH]c2ccccc12)NC(=O)[C@H](CCCCN)NC(=O)[C@H](CCSC)NC(=O)[C@H](CCCNC(=N)N)NC(=O)[C@H](CCCNC(=N)N)NC(=O)[C@H](CC(N)=O)NC(=O)[C@H](CCC(N)=O)NC(=O)[C@H](Cc1ccccc1)NC(=O)[C@H](Cc1c[nH]c2ccccc12)NC(=O)[C@@H](NC(=O)[C@H](CCCCN)NC(=O)[C@@H](NC(=O)[C@H](CCC(N)=O)NC(=O)[C@H](CCCNC(=N)N)NC(=O)CCCCCNC(=O)CCCC[C@@H]1SC[C@@H]2NC(=O)N[C@@H]21)[C@@H](C)CC)[C@@H](C)CC)C(=O)N[C@@H](Cc1c[nH]c2ccccc12)C(=O)N[C@@H](CCCCN)C(=O)N[C@@H](C)C(=O)N[C@@H](CO)C(=O)N[C@@H](Cc1ccccc1)C(=O)N[C@H](C(=O)N[C@H](C(=O)N[C@@H](Cc1ccccc1)C(=O)N[C@H](C(=O)N[C@H](C(=O)N[C@H](C(=O)N[C@@H](CCCCN)C(=O)N[C@@H](Cc1ccc(O)cc1)C(=O)N[C@@H](Cc1c[nH]c2ccccc12)C(=O)N[C@@H](Cc1ccccc1)C(=O)N[C@@H](Cc1ccc(O)cc1)C(=O)N[C@@H](CCCNC(=N)N)C(=O)O)[C@@H](C)O)C(C)C)[C@@H](C)O)[C@@H](C)O)[C@@H](C)O [Biot-AP-Cav] (HELM PEPTIDE1{[O=C1N[C@H]2[C@H](CS[C@H]2CCCCC(=O)[*:2])N1].[O=C(CCCCCN[*:1])[*:2]].R.Q.I.K.I.W.F.Q.N.R.R.M.K.W.K.K.D.G.I.W.K.A.S.F.T.T.F.T.V.T.K.Y.W.F.Y.R}$$$$V2.0; N-terminus and C-terminus assumed) | inhibited Ach induced relaxation
